According to article PMC12040169 (PLOS Biology, 2025):
The other results are listed elsewhere or left out.

Each compound was assayed on T1, CTL2-GFP (C. trachomatis L2/434/Bu, GFP-expressing). Settings: bulk GFP, single well; 28.5 h, 10 µM; inhibitor.
T1 construct: L2/434/Bu, GFP-expressing
Set-up: species or system HeLa; Intracellular C. trachomatis growth in HeLa cells, bulk GFP fluorescence relative to DMSO

SMILES	% of control remaining [%]
Cc1c(Cl)c(C(F)(F)F)nn1CCCNC(=S)Nc1ccc(S(N)(=O)=O)cc1 [CBK267113]	93.6949
Cc1n[nH]c(-c2ccccc2NS(=O)(=O)c2cnn(C(C)C)c2)n1 [CBK306377]	117.312
COC(=O)[C@@H]1Cc2ncn(C)c2CN1S(=O)(=O)c1cccs1 [CBK288992]	116.312
COC(=O)c1ccc(CN2CCCC2)cc1 [CBK029023]	187.315
O=C(CCn1c(C(F)(F)F)cc2cccnc21)N1CCCC1 [CBK284962]	100.347
CCc1c(C)nc2c(C(=O)N3CCCC3COC)cnn2c1C (centres unmarked) [CBK162146]	107.644
Cc1cc(C)n(CCC(=O)N2CCC(c3ccncc3)CC2)n1 [CBK283529]	100.607
COc1ccc(OC(C)C(=O)O/N=C(\N)c2ccccn2)cc1 (centres unmarked) [CBK266669]	152.318
CC(C)(C)NC(=O)N/N=C/c1[nH]ncc1Br [CBK017439]	109.947
CCN(CC)C(=O)CNS(=O)(=O)c1ccc(OC)c(OC)c1 [CBK034499]	100.93
COc1ccc(F)cc1S(=O)(=O)N1CCCN(S(=O)(=O)c2cc(F)ccc2OC)CC1 [CBK266555]	123.762
C[C@@H](c1ccccc1)N1C(=O)[C@@H]2CN(C(=O)COCC(=O)O)CCN2C1=O [CBK289636]	146.907
CCn1c(CC2CCN(c3nc(C)cc(C)c3C#N)CC2)nn(C)c1=O [CBK307027]	98.8127
Cc1cc(CN2CCN(C(C)c3nc(C(C)(C)C)no3)CC2)no1 (centres unmarked) [CBK305641]	124.884
Nc1ncc(-c2cncnc2)nc1NCC1CCOCC1 [CBK063877]	182.73
Oc1cccc(C(O)CNCc2ccc(OCc3ccc(Cl)cc3Cl)cc2)c1 (centres unmarked) [CBK267621C]	99.0386
O=C(O)C[C@]1(C(=O)NC2CCCCCC2)CC(c2ccc(Cl)cc2)=NO1 [CBK286716]	91.2268
CNS(=O)(=O)c1ccc(C)c(C(=O)N(C)Cc2cnn(C)c2)c1 [CBK304026]	99.8982
Nc1ccc(-c2ncccc2O)cc1 [CBK262937C]	113.803
O=C1N=C(Nc2cccc(O)c2)S/C1=C1\C(=O)Nc2ccccc21 [CBK265549]	88.7407
Cc1nn(CC(=O)N2CCCC2)c(=O)c2cc3ccsc3n12 [CBK284057]	145.172
O=C(NCCCn1ccnc1)c1cc(-c2ccc(Br)cc2)nc2ccccc12 [CBK262645]	17.1893
CN(C)C(=O)[C@@]1(O)CCC2(c3ccc(Cl)cc3)CCCN(C)C2C1 (some centres unmarked) [CBK005234]	87.2717
COc1cccc(-c2csc(NS(=O)(=O)c3ccc(C)c(C(=O)O)c3)n2)c1 [CBK299803]	161.073
CC1=C[C@@H](CNS(C)(=O)=O)[C@H](C(C)C)C[C@H]1CC(=O)N1CCOCC1 [CBK289050]	138.352
CCCCSc1nnc(-c2cc3c(C(F)(F)F)nn(C)c3s2)n1C [CBK019526]	143.763
CC(C)C(=O)Nc1cc2cccnc2nc1-c1ccccc1 [CBK073647]	191.079

For convenience, some entries already given.
SMILES	% of control remaining [%]
CC(C)(C)NC(=O)N/N=C/c1[nH]ncc1Br [CBK017439]	109.947
CCN(CC)C(=O)CNS(=O)(=O)c1ccc(OC)c(OC)c1 [CBK034499]	100.93
COc1ccc(F)cc1S(=O)(=O)N1CCCN(S(=O)(=O)c2cc(F)ccc2OC)CC1 [CBK266555]	123.762
C[C@@H](c1ccccc1)N1C(=O)[C@@H]2CN(C(=O)COCC(=O)O)CCN2C1=O [CBK289636]	146.907
CCn1c(CC2CCN(c3nc(C)cc(C)c3C#N)CC2)nn(C)c1=O [CBK307027]	98.8127
Cc1cc(CN2CCN(C(C)c3nc(C(C)(C)C)no3)CC2)no1 (centres unmarked) [CBK305641]	124.884
Nc1ncc(-c2cncnc2)nc1NCC1CCOCC1 [CBK063877]	182.73
Oc1cccc(C(O)CNCc2ccc(OCc3ccc(Cl)cc3Cl)cc2)c1 (centres unmarked) [CBK267621C]	99.0386
O=C(O)C[C@]1(C(=O)NC2CCCCCC2)CC(c2ccc(Cl)cc2)=NO1 [CBK286716]	91.2268
CNS(=O)(=O)c1ccc(C)c(C(=O)N(C)Cc2cnn(C)c2)c1 [CBK304026]	99.8982
Nc1ccc(-c2ncccc2O)cc1 [CBK262937C]	113.803
O=C1N=C(Nc2cccc(O)c2)S/C1=C1\C(=O)Nc2ccccc21 [CBK265549]	88.7407
Cc1nn(CC(=O)N2CCCC2)c(=O)c2cc3ccsc3n12 [CBK284057]	145.172
O=C(NCCCn1ccnc1)c1cc(-c2ccc(Br)cc2)nc2ccccc12 [CBK262645]	17.1893
CN(C)C(=O)[C@@]1(O)CCC2(c3ccc(Cl)cc3)CCCN(C)C2C1 (some centres unmarked) [CBK005234]	87.2717
COc1cccc(-c2csc(NS(=O)(=O)c3ccc(C)c(C(=O)O)c3)n2)c1 [CBK299803]	161.073
CC1=C[C@@H](CNS(C)(=O)=O)[C@H](C(C)C)C[C@H]1CC(=O)N1CCOCC1 [CBK289050]	138.352
CCCCSc1nnc(-c2cc3c(C(F)(F)F)nn(C)c3s2)n1C [CBK019526]	143.763
CC(C)C(=O)Nc1cc2cccnc2nc1-c1ccccc1 [CBK073647]	191.079

Next results

SMILES	% of control remaining [%]
Nc1nc(O)cc(C2CCN(CCOc3ccccc3F)C2)n1 (centres unmarked) [CBK304726]	123.708
CC(C)(C)OC(=O)NC1CCC(NCc2ccccc2Br)CC1 (centres unmarked) [CBK056684]	109.005
CSCC(=O)N1C[C@@H]2C[C@H](C1)c1c(-c3ccc(NC(C)=O)cc3)ccc(=O)n1C2 [CBK289200]	107.863
Nc1cccc(-c2nc(NC(=O)c3ccncc3)cnc2-c2ccc(F)c(Cl)c2)c1 [CBK037573]	74.2048
CCOc1ccccc1CN(C)c1cc(C2CC(N)C2)nc(N)n1 (centres unmarked) [CBK307308]	159.106
COc1ccc(CCNCC2OCCc3cccc(OC)c32)cc1OC (centres unmarked) [CBK024032C]	105.965
OCCN(CCO)c1cncc(-c2cccc3ccccc23)n1 [CBK065812]	120.792
O=C(O)CCc1ccc(-c2ccc(F)cc2)n1CC1CCCO1 (centres unmarked) [CBK268988]	168.423
Cc1cc(/C=N/NC(=O)C(=O)NCc2ccccn2)c(C)n1-c1cccc(Br)c1 [CBK263815]	112.153
Cc1ccccc1NC(=O)Nc1ccc(OCc2ccccc2)cc1 [CBK262861]	121.939
COc1ccc2[nH]c3c(=O)n(C)cnc3c2c1 [CBK025870]	105.02
COc1ccc(CCNC(=O)N2CCCC(C(=O)O)C2)cc1OC (centres unmarked) [CBK161354]	102.519
CN(C)C[C@@H]1Cc2cccc3cccc(c23)[C@@H]1O [CBK005877C]	100.058
COCCN(Cc1cn2cccc(C(=O)OC)c2n1)Cc1ccco1 [CBK305366]	125.997
Cn1c(=O)[nH]c(=O)c2c1nc(CN1CCOCC1)n2Cc1c(F)cccc1Cl [CBK270085]	167.22
CN(CCc1ccncc1)C(=O)c1cc2ccc(F)cc2[nH]1 [CBK283215]	127.84
Fc1ccc(COc2ccccc2CNCCN2CCOCC2)cc1 [CBK278150C]	164.147
CC(=O)Nc1ccc(-c2cncc(Nc3ccc4c(c3)OC(F)(F)C(F)(F)O4)n2)cc1 [CBK065726]	157.641
O=c1c(O)c(-c2ccc(F)cc2)oc2ccccc12 [CBK288369]	122.246
C=CCOc1ccc(CN(C)Cc2nc3cc(C(=O)O)ccc3c(=O)[nH]2)cc1 [CBK295156]	163.714
CCCNC(=O)c1nn2c(C(F)(F)F)cc(-c3ccccc3)nc2c1Cl [CBK051499]	81.9662
O=C(CSc1ncn[nH]1)N/N=C/c1cn(-c2ccccc2)nc1-c1ccccc1 [CBK262850]	81.8016
O=C1c2ccccc2C(=O)N1c1ccc(S(=O)(=O)NCCCO)c2ccccc12 [CBK262509]	117.818
CCC(O)c1nc(CCSC)nn1-c1cc(=O)n(C)c2ccccc12 (centres unmarked) [CBK307711]	111.01
CCCN(CC1CCCO1)C(=O)c1cc2ccc(OC)cc2n1C (centres unmarked) [CBK282139]	133.839
COCCCNC(=O)Cn1ccc2ccnc(-c3cccs3)c21 [CBK282303]	101.695
c1cncc(COc2nccnc2N2CCCC2)c1 [CBK115890]	139.166

SMILES	% of control remaining [%]
CCc1nccn1CCCNC(=O)Nc1cccnc1 [CBK306736]	145.758
O=C1Nc2ccccc2Oc2ccc(S(=O)(=O)N3CCOCC3)cc21 [CBK269807]	101.334
CCc1nn(Cc2ccncc2)c(=O)c2cc3sc(C)cc3n12 [CBK284140]	126.444
COc1ccc(OC(=O)c2cc(S(=O)(=O)N3CCOCC3)ccc2Cl)cc1 [CBK261655]	100
Clc1ccc2c(c1)OCC[C@@H]2Oc1cncc(N2CCNCC2)n1 [CBK172313G]	130.975
Cn1cc(C(=O)NC(Cc2ccsc2)c2nccs2)ccc1=O (centres unmarked) [CBK285140]	122.547
O=C(Nc1ccc(N2CCN(C(=O)c3cccs3)CC2)cc1)c1ccc(-c2cc3ccccc3oc2=O)cc1 [CBK267340]	139.109
CCOc1cc(Br)ccc1S(=O)(=O)NCc1ccc2c(c1)OCO2 [CBK268813]	153.017
Cc1nonc1CN(C)C(=O)c1ccc2c(c1)c(C)c(C)n2C [CBK281442]	119.956
COc1ccc(C(=O)O)cc1CN1CCOCC1 [CBK287029]	122.184
COCC(C)N(C)S(=O)(=O)c1ccc(Cl)nc1 (centres unmarked) [CBK304813]	111.453
CC(=O)N1CC2(CCN(C(=O)C(C)(C)C)CC2)Nc2ccccc21 [CBK284448]	72.5789
Cc1ccc(Nc2ncc3c(n2)CCCC3=O)cc1 [CBK288143]	123.423
O=[N+]([O-])c1cccc(CNc2nccnc2-c2ccccc2F)c1 [CBK037416]	145.795
N#Cc1cccc(OCC(=O)NCC2(N3CCOCC3)CCSC2)c1 (centres unmarked) [CBK305685]	125.408
COc1ccc(CN2CC[C@H]3NC(=O)CNC(=O)C4(C/C=C/C[C@H]3C2)CCN(C(C)=O)CC4)cc1 [CBK292013]	137.228
Cc1ccc(-c2nc3ncc(C#N)c(N)n3n2)cc1 [CBK288153]	107.147
CN(C1CCCCC1)C1CCN(CCc2ccccc2)CC1 [CBK261918]	111.136
COc1cc(-c2nccnc2NCCCO)cc(OC)c1OC [CBK037274]	105.455
CC(C)CCN1CCC2CN(CCCC(c3ccc(F)cc3)c3ccc(F)cc3)CCN2C1=O (centres unmarked) [CBK024898C]	138.453
O=C(NC1CCCCC1)C1CCC1 [CBK011511]	115.007
O=S(=O)(N1CCNCC1)N1CCOCC1 [CBK267467]	144.202
CCn1c(SCC(=O)NC2CC2)nc2ccccc21 [CBK305864]	104.715
COCC(=O)NC1CCN(CC2(c3ccc(F)cc3)CCCC2)CC1 [CBK285387]	127.386
O=C1COc2ccccc2CCCC[C@@H]2CN(C(=O)Cn3ccc(=O)[nH]c3=O)CC[C@H]2N1 [CBK292048]	171.615
Cn1c(=O)c2c(ncn2Cc2ccccc2)n(C)c1=O [CBK133402]	46.6627
